{"source": "PubChem BioAssay AID1259254 (NCATS, 2017)", "test": "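Finding genes that stop cells copying their DNA twice in one cycle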 (primary screen)", "system": "human HCT116 colorectal cancer cells", "knock-down reagent": "single siRNA against human genes", "time to read-out": "3 days", "measurement": "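Imaged Hoechst DNA stain sorts each cell into a cycle phase by DNA amount; per plate, G2 fraction set to 0% for non-targeting and 100% for GMNN siRNA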", "scale": "G2 robust z-score: higher = more G2 cells, more excess DNA replication", "active means": "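Active siRNAs have a G2 robust z of 5 or more median absolute deviations over the median, which in these data means about 38% or higher of GMNN control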", "note": "This is a random part of about 59,000 reagents tested. Of all reagents, about 1,550 (2.6%) were called active. 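G2 share is only a proxy for re-replication; each gene was hit by three separate siRNAs, and active genes were retested.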 Reagents against one gene are numbered here. Further read-outs or replicates are left out here. Reagent sequences are not shown. Not given: the amount of reagent."}
{"gene":"HARS1","reagent no.":1,"G2 robust z-score":-1.21,"Call":"inactive"}
{"gene":"HARS1","reagent no.":2,"G2 robust z-score":0.975,"Call":"inactive"}
{"gene":"HARS1","reagent no.":3,"G2 robust z-score":0.553,"Call":"inactive"}
{"gene":"BRD2","reagent no.":1,"G2 robust z-score":2.84,"Call":"inactive"}
{"gene":"BRD2","reagent no.":2,"G2 robust z-score":2.67,"Call":"inactive"}
{"gene":"BRD2","reagent no.":3,"G2 robust z-score":4.13,"Call":"inactive"}
{"gene":"SIDT2","reagent no.":1,"G2 robust z-score":1.3,"Call":"inactive"}
{"gene":"SIDT2","reagent no.":2,"G2 robust z-score":-1.21,"Call":"inactive"}
{"gene":"SIDT2","reagent no.":3,"G2 robust z-score":3.39,"Call":"inactive"}
{"gene":"SPATA13","reagent no.":1,"G2 robust z-score":3.8,"Call":"inactive"}
{"gene":"SPATA13","reagent no.":2,"G2 robust z-score":-0.664,"Call":"inactive"}
{"gene":"SPATA13","reagent no.":3,"G2 robust z-score":0.675,"Call":"inactive"}
{"gene":"PORCN","reagent no.":1,"G2 robust z-score":0.117,"Call":"inactive"}
{"gene":"PORCN","reagent no.":2,"G2 robust z-score":-1.48,"Call":"inactive"}
{"gene":"PORCN","reagent no.":3,"G2 robust z-score":-0.645,"Call":"inactive"}
{"gene":"SLC25A29","reagent no.":1,"G2 robust z-score":0.502,"Call":"inactive"}
{"gene":"SLC25A29","reagent no.":2,"G2 robust z-score":-0.769,"Call":"inactive"}
{"gene":"SLC25A29","reagent no.":3,"G2 robust z-score":-1.17,"Call":"inactive"}

Individual results from the entries so far:
Entry for HARS1 #1 under “G2 robust z-score”: -1.21
SIDT2 #1, Call: inactive
